No constants are given. Whether binding was seen depends on the method and setting. For some of these results: In cells and extracts the contact can be indirect. Some entries that bind do so weakly or less than the wild type.

By UniProt entry, the sequences of proteins in these tests, tags left out. Where a name states a change or a piece, a line headed by the entry shows the natural chain unless it says otherwise. Residues count along the entry.
UniProt Q9NZQ7: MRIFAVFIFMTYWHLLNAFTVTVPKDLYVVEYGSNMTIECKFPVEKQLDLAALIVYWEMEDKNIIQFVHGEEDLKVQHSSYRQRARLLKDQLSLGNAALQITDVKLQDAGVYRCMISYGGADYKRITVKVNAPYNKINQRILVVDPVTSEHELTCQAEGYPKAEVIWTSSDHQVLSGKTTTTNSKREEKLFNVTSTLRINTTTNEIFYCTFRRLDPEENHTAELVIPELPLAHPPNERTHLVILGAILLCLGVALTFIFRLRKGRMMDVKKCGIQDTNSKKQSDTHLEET
UniProt P40189, residues 23-918: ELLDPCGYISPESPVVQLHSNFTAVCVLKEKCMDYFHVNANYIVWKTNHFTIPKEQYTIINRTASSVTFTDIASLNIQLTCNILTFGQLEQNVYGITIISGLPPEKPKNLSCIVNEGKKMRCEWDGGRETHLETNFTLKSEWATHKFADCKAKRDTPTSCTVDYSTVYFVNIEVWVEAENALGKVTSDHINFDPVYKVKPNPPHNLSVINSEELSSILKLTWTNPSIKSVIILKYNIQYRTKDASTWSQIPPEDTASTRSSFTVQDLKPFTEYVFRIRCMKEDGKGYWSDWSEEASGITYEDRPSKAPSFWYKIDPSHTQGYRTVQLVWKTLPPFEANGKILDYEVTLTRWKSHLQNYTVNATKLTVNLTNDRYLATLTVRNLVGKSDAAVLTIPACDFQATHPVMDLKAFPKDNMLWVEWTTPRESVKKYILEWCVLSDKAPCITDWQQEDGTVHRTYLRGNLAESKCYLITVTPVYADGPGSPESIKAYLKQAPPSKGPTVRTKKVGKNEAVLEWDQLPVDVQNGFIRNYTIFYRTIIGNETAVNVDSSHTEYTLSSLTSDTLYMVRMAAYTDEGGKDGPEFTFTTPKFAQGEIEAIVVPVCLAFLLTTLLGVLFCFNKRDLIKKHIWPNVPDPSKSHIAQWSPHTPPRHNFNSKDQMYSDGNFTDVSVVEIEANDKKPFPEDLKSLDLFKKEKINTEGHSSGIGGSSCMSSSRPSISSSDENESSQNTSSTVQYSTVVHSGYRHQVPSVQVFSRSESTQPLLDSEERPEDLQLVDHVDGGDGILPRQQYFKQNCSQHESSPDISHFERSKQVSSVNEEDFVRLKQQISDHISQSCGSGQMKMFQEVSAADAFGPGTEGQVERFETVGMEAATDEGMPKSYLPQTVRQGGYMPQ
UniProt Q15116, residues 25-288: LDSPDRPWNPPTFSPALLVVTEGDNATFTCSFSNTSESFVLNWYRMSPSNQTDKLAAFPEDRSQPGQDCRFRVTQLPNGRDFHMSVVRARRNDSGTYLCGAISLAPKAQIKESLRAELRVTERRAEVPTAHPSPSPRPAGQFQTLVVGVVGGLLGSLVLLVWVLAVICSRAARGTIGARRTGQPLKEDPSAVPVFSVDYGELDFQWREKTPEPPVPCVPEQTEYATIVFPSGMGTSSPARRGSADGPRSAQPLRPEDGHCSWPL

Assay [1] has as its target programmed death-ligand 1 (PD-L1) (human (endogenous in GBM cell lines T98/U87)) (UniProt Q9NZQ7). The experiment in a line: co-IP; GBM cell lysates incubated overnight at 4 °C with specific primary antibodies and Protein A + G magnetic beads; immunoprecipitates analysed by Western blot; endogenous proteins. A general note: A western blot detects proteins with antibodies after separation by electrophoresis.

Assay [2] has as its target glycoprotein 130 (GP130) (human (endogenous in GBM cell lines T98/U87)) (UniProt P40189). The description is as above.
Assay [3] shares this target. Briefly: cellular thermal shift assay (CETSA); GBM cells incubated with rPD-L1 or vehicle at 25 °C for 30 min, suspended in 1x PBS, heated 3 min at five temperatures from 45 °C to 65 °C, freeze-thaw lysis, centrifuged; GP130 detected by Western blot; only the binder purified.

As to “glycoprotein 130 (GP130) (from UniProt P40189 23-918) (receptor)”, in assay [1], the binding entry is “binds”. Take “programmed death-1 (PD-1) (from UniProt Q15116 25-288) (receptor)”: the binding entry in assay [2] is listed as “binds”. Consider “programmed death-ligand 1 (PD-L1) (from UniProt Q9NZQ7 19-290)”, for which the binding result in assay [2] was “binds”.

Consider “recombinant human PD-L1 (rPD-L1) (from UniProt Q9NZQ7 19-238) (ligand)”, for which, in assay [3], the binding entry is recorded as “binds”.

Source of the values: publication PMC12508128.
